From the supplement of paper PMC12067093, “Discovery and optimisation of a covalent ligand for TRIM25 and its application to targeted protein ubiquitination” (Chemical Science, 2025)
Some of the results follow.

Sequences of proteins named here, by UniProt entry; tags and fusion partners are left off. A change or cut given only in a name is not applied to a line headed by its entry.
UniProt Q69YH5: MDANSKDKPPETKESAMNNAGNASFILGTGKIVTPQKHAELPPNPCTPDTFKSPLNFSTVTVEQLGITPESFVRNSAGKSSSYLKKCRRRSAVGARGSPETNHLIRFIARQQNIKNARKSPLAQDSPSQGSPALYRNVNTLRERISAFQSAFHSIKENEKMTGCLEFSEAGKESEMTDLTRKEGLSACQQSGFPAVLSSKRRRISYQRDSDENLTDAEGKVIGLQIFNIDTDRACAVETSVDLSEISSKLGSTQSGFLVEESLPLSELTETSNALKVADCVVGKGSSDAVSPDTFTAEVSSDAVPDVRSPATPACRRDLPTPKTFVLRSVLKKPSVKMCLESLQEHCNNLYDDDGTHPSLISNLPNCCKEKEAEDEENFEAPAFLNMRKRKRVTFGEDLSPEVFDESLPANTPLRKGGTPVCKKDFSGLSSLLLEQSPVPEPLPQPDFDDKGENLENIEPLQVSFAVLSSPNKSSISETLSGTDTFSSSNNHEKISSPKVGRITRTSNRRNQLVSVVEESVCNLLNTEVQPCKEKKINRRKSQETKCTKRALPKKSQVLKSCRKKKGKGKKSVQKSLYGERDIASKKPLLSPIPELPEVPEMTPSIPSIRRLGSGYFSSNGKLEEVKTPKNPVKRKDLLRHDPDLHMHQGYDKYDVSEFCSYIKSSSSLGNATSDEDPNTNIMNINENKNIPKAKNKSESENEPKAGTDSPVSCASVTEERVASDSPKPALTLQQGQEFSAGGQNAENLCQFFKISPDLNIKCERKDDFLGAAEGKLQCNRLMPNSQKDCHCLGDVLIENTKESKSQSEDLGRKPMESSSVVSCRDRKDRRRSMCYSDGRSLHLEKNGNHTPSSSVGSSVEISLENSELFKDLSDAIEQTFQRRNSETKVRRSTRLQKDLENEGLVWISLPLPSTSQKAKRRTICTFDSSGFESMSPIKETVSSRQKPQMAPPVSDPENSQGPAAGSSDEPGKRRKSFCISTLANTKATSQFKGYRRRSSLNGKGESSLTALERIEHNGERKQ
UniProt Q9Y6A4: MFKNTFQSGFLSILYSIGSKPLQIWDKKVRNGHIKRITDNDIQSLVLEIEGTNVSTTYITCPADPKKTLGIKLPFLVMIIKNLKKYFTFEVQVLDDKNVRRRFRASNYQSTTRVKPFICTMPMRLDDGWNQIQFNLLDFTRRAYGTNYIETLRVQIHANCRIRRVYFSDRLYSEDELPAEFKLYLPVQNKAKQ
UniProt Q8TEP8: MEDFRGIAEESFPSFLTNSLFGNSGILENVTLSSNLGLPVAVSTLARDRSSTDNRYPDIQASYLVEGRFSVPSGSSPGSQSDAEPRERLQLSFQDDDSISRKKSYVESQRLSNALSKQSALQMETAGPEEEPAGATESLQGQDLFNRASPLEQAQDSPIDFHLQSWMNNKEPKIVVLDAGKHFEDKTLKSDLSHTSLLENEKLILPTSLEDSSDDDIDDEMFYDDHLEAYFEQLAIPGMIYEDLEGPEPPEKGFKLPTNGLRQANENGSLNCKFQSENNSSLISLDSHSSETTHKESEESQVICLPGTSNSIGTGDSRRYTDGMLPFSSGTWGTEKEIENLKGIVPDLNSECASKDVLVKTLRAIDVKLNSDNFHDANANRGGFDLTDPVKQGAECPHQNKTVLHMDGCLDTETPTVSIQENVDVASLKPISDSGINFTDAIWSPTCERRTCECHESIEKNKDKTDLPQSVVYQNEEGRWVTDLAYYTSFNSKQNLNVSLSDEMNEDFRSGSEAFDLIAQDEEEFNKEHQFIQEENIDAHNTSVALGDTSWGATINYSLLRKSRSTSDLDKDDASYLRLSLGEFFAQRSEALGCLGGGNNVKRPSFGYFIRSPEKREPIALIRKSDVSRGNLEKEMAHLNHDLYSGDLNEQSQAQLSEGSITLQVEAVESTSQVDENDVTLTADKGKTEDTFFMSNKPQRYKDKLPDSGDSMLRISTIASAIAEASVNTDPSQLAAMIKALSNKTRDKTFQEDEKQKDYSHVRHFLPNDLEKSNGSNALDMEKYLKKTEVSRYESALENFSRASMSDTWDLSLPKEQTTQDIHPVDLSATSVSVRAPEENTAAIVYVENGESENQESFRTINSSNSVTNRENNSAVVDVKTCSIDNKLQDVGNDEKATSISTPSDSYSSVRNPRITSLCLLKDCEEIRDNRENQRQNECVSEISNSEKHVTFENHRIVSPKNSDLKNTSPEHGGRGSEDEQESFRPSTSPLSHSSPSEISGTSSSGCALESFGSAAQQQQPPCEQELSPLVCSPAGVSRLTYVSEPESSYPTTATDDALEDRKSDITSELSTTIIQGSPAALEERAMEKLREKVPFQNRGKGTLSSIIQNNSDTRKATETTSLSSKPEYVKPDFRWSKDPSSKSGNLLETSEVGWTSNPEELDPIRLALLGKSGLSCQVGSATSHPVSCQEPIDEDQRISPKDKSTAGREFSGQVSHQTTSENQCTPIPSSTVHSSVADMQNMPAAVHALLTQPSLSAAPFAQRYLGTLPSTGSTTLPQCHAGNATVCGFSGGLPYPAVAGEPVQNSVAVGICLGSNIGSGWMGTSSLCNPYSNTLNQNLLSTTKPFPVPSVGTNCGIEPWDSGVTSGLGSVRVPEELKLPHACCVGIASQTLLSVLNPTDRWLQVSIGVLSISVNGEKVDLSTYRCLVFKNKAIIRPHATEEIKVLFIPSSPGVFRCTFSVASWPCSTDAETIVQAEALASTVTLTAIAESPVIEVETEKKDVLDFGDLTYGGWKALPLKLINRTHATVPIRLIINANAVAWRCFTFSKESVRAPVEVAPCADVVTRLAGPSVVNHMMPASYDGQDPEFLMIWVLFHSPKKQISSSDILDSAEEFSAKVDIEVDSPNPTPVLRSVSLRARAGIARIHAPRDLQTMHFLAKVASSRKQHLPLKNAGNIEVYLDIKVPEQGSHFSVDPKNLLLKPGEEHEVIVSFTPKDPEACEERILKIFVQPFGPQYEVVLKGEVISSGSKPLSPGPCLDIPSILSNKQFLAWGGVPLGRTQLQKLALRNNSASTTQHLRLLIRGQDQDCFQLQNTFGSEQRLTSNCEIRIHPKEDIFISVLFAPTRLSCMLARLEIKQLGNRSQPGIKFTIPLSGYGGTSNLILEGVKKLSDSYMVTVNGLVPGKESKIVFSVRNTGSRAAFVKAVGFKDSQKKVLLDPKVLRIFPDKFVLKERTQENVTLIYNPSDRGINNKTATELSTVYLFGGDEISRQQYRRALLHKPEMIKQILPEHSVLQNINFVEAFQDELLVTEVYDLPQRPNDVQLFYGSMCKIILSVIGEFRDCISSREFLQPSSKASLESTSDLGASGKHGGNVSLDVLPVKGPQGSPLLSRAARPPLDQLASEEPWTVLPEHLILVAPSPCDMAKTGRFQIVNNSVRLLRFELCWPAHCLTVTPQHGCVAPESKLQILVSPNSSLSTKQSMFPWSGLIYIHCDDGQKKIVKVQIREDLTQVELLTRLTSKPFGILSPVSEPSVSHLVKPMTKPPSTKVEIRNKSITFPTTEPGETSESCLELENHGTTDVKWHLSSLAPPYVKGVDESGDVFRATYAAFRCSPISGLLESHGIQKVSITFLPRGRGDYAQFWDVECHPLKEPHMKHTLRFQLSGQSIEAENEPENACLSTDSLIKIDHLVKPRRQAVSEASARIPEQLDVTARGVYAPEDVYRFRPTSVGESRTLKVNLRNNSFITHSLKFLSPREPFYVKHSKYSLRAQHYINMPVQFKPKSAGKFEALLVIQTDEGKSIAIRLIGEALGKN
UniProt P50990: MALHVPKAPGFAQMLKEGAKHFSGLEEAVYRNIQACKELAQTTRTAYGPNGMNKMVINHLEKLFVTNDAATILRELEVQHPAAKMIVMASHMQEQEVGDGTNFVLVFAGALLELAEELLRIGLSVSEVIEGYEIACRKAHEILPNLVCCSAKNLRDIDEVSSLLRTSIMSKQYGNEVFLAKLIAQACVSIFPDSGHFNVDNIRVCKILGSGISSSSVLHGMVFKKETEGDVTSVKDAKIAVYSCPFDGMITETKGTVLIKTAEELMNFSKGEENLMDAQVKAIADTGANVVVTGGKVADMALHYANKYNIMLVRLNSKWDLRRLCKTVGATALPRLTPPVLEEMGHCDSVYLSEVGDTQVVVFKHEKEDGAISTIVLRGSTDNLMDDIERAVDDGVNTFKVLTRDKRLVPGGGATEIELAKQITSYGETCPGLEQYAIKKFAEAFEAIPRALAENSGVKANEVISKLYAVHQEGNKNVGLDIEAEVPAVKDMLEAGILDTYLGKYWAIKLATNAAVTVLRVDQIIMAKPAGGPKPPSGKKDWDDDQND
UniProt Q5SW79: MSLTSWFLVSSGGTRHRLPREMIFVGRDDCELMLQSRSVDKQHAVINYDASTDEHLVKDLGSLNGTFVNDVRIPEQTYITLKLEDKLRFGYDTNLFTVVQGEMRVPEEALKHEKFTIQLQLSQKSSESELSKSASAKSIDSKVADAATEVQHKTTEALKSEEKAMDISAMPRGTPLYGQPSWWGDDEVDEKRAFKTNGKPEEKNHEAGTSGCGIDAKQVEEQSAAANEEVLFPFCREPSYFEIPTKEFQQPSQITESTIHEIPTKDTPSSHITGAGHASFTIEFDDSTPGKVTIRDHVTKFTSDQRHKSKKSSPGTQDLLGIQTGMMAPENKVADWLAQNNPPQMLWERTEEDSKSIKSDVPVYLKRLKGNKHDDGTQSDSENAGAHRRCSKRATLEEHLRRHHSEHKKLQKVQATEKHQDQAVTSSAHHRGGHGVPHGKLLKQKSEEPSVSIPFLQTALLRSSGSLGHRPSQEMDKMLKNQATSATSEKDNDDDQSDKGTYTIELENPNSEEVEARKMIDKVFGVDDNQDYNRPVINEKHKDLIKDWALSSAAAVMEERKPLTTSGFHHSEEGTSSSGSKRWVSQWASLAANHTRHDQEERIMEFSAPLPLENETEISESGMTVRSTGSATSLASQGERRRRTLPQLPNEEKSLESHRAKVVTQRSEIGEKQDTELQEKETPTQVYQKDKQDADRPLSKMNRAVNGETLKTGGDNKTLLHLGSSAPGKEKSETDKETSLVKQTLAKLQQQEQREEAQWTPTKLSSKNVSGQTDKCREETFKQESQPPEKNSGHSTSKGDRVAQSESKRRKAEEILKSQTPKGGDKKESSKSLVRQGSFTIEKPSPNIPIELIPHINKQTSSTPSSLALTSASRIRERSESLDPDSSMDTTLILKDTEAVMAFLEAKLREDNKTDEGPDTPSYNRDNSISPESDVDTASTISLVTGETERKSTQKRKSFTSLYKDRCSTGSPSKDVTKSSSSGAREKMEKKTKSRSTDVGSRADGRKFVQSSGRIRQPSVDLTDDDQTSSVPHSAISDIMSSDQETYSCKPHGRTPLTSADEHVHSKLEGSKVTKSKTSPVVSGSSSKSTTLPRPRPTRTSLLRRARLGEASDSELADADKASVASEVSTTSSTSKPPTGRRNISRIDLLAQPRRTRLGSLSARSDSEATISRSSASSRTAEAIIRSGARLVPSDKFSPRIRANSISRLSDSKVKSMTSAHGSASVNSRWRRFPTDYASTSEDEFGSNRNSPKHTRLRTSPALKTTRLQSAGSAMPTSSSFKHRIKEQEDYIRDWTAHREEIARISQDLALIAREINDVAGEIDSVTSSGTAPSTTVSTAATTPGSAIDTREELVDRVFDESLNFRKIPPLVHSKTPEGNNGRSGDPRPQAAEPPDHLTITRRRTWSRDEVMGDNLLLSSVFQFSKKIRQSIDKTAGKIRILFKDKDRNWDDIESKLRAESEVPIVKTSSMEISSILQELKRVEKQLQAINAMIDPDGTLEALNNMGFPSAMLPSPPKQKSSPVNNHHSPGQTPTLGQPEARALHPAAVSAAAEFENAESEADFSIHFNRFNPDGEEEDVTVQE
UniProt P60953, whole entry, looked up: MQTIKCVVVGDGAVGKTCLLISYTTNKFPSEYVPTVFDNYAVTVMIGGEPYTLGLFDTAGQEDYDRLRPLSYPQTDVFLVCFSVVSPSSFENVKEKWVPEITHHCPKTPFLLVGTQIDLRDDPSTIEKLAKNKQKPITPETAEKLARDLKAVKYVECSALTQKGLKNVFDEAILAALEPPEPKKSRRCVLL
UniProt Q00535, whole entry, looked up: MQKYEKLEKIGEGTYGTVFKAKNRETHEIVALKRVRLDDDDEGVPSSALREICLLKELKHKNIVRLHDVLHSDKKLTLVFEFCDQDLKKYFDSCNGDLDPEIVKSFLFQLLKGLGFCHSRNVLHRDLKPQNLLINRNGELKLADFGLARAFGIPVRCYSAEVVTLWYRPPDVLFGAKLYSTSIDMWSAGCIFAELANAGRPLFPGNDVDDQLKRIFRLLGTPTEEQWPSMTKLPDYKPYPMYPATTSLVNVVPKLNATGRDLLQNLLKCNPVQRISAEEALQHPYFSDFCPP
UniProt P32970: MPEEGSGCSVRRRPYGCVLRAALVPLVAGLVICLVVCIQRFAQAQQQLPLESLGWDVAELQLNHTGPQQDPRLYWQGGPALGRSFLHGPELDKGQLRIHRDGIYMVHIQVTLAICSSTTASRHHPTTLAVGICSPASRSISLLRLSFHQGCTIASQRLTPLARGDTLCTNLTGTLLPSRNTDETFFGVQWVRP

Compound: Cc1cc(ccc1-c1ccccc1)C(=O)N1CCCN(CC1)C(=O)CCl [compound 10]
Experiment: probe-labelled cysteine peptide fold change vs DMSO (competition) (log2 fold change); higher = less target engagement (more negative = stronger competition)
Settings: THP-1, incubation time: 4 h
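Further: competitive profiling in live THP-1 cells: cysteine peptides tagged with an iodoacetamide desthiobiotin (IA-DTB) probe, intensity after compound treatment relative to DMSO-treated cells.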

CDCA2_Q69YH5_714_AGTDSPVSCASVTEER (UniProt Q69YH5)
probe-labelled cysteine peptide fold change (10 µM): -0.456 | probe-labelled cysteine peptide fold change (50 µM): -0.149

CDCA7L_Q96GN5_422_CATGILIHLAK (UniProt Q96GN5)
probe-labelled cysteine peptide fold change (10 µM): -0.151 | probe-labelled cysteine peptide fold change (50 µM): -0.776

CFAP20_Q9Y6A4_160_VQIHANCR (UniProt Q9Y6A4)
probe-labelled cysteine peptide fold change (10 µM): 0.0969 | probe-labelled cysteine peptide fold change (50 µM): 0.272

CDK12_Q9NYV4_862_CSNILLNNSGQIK (UniProt Q9NYV4)
probe-labelled cysteine peptide fold change (10 µM): -0.0809 | probe-labelled cysteine peptide fold change (50 µM): -0.0162

CES1_P23141_274_KGDVKPLAEQIAITAGCK (UniProt P23141)
probe-labelled cysteine peptide fold change (10 µM): -0.0673 | probe-labelled cysteine peptide fold change (50 µM): 0.19

CDYL_Q9Y232_571_MELEQANERECEVLK (UniProt Q9Y232)
probe-labelled cysteine peptide fold change (10 µM): -0.166 | probe-labelled cysteine peptide fold change (50 µM): -0.174

CEP192_Q8TEP8_352_GIVPDLNSECASK (UniProt Q8TEP8)
probe-labelled cysteine peptide fold change (10 µM): -0.225 | probe-labelled cysteine peptide fold change (50 µM): -0.496

CDC27_P30260_184_FTSLQNFSNCLPNSCTTQVPNHSLSHR (UniProt P30260)
probe-labelled cysteine peptide fold change (10 µM): -0.0972 | probe-labelled cysteine peptide fold change (50 µM): -0.0783

CDS1_Q92903_10_GSCPGPR (UniProt Q92903)
probe-labelled cysteine peptide fold change (10 µM): 0.244 | probe-labelled cysteine peptide fold change (50 µM): 0.146

CDC73_Q6P1J9_145_IEDEECVRLDK (UniProt Q6P1J9)
probe-labelled cysteine peptide fold change (10 µM): -0.235 | probe-labelled cysteine peptide fold change (50 µM): -0.426

CCT8_P50990_136_IGLSVSEVIEGYEIACRK (UniProt P50990)
probe-labelled cysteine peptide fold change (10 µM): 0.418 | probe-labelled cysteine peptide fold change (50 µM): -0.115

CCT8_P50990_187_LIAQACVSIFPDSGHFNVDNIR (UniProt P50990)
probe-labelled cysteine peptide fold change (10 µM): 0.0716 | probe-labelled cysteine peptide fold change (50 µM): 0.0493

CENPP_Q6IPU0_147_LSSAVTDLNIIMEPTECSELSEFVSR (UniProt Q6IPU0)
probe-labelled cysteine peptide fold change (10 µM): -0.118 | probe-labelled cysteine peptide fold change (50 µM): 0.107

CEP170_Q5SW79_235_QVEEQSAAANEEVLFPFCR (UniProt Q5SW79)
probe-labelled cysteine peptide fold change (10 µM): -0.166 | probe-labelled cysteine peptide fold change (50 µM): 0.167

CEP170_Q5SW79_967_CSTGSPSK (UniProt Q5SW79)
probe-labelled cysteine peptide fold change (10 µM): -0.0458 | probe-labelled cysteine peptide fold change (50 µM): -0.497

CDCA2_Q69YH5_790_DCHCLGDVLIENTK (UniProt Q69YH5)
probe-labelled cysteine peptide fold change (10 µM): -0.209 | probe-labelled cysteine peptide fold change (50 µM): -0.376

CERS5_Q8N5B7_369_SPCDSSSSNGANR (UniProt Q8N5B7)
probe-labelled cysteine peptide fold change (10 µM): -0.115 | probe-labelled cysteine peptide fold change (50 µM): -0.159

CCT7_Q99832_310_LPIGDVATQYFADRDMFCAGRVPEEDLKR (UniProt Q99832)
probe-labelled cysteine peptide fold change (10 µM): -0.232 | probe-labelled cysteine peptide fold change (50 µM): -0.817

CDC40_O60508_378_KVPYCVK (UniProt O60508)
probe-labelled cysteine peptide fold change (10 µM): -0.335 | probe-labelled cysteine peptide fold change (50 µM): -0.733

CEP55_Q53EZ4_462_DLLVHVEYCSK (UniProt Q53EZ4)
probe-labelled cysteine peptide fold change (10 µM): 0.0253 | probe-labelled cysteine peptide fold change (50 µM): -0.153

CDC42_P60953_105_EKWVPEITHHCPK (UniProt P60953)
probe-labelled cysteine peptide fold change (10 µM): -0.508 | probe-labelled cysteine peptide fold change (50 µM): -0.929

CDCA2_Q69YH5_979_SFCISTLANTK (UniProt Q69YH5)
probe-labelled cysteine peptide fold change (10 µM): -0.0796 | probe-labelled cysteine peptide fold change (50 µM): -0.162

CDK5_Q00535_117_GLGFCHSR (UniProt Q00535)
probe-labelled cysteine peptide fold change (10 µM): 0.00449 | probe-labelled cysteine peptide fold change (50 µM): 0.158

CEP192_Q8TEP8_1562_APVEVAPCADVVTR (UniProt Q8TEP8)
probe-labelled cysteine peptide fold change (10 µM): -0.611 | probe-labelled cysteine peptide fold change (50 µM): -0.285

CEP250_Q9BV73_1557_QLVTLECLALELEENHHK (UniProt Q9BV73)
probe-labelled cysteine peptide fold change (10 µM): 0.0292 | probe-labelled cysteine peptide fold change (50 µM): 0.153

CD70_P32970_151_LSFHQGCTIASQR (UniProt P32970)
probe-labelled cysteine peptide fold change (10 µM): -0.0511 | probe-labelled cysteine peptide fold change (50 µM): 0.0696

CD70_P32970_133_HHPTTLAVGICSPASR (UniProt P32970)
probe-labelled cysteine peptide fold change (10 µM): -0.345 | probe-labelled cysteine peptide fold change (50 µM): 0.00996

CENPK_Q9BS16_66_CLTAELSQWQK (UniProt Q9BS16)
probe-labelled cysteine peptide fold change (10 µM): 0.0921 | probe-labelled cysteine peptide fold change (50 µM): -0.0128

CELF1_Q92879_119_KCTENDIR (UniProt Q92879)
probe-labelled cysteine peptide fold change (10 µM): -0.0079 | probe-labelled cysteine peptide fold change (50 µM): 0.125

CDC20_Q12834_364_AVAWCPWQSNVLATGGGTSDR (UniProt Q12834)
probe-labelled cysteine peptide fold change (10 µM): -0.067 | probe-labelled cysteine peptide fold change (50 µM): -0.188

CEP350_Q5VT06_1557_QESPSVPSCK (UniProt Q5VT06)
probe-labelled cysteine peptide fold change (10 µM): -0.113 | probe-labelled cysteine peptide fold change (50 µM): -0.568

CDK5_Q00535_290_ISAEEALQHPYFSDFCPP (UniProt Q00535)
probe-labelled cysteine peptide fold change (10 µM): -0.284 | probe-labelled cysteine peptide fold change (50 µM): -0.403

CERS6_Q6ZMG9_236_VGTLVLCLHDSADALLEAAK (UniProt Q6ZMG9)
probe-labelled cysteine peptide fold change (10 µM): 0.186 | probe-labelled cysteine peptide fold change (50 µM): 0.0157

CEP97_Q8IW35_484_AGLLPCPEPTIISAILK (UniProt Q8IW35)
probe-labelled cysteine peptide fold change (10 µM): -0.107 | probe-labelled cysteine peptide fold change (50 µM): 0.142

CELF2_O95319_161_VMFSPFGQIEECR (UniProt O95319)
probe-labelled cysteine peptide fold change (10 µM): 0.0611 | probe-labelled cysteine peptide fold change (50 µM): -0.0177

CDC16_Q13042_194_LCNEEQELLR (UniProt Q13042)
probe-labelled cysteine peptide fold change (10 µM): -0.0905 | probe-labelled cysteine peptide fold change (50 µM): -0.174

CCT8_P50990_36_NIQACK (UniProt P50990)
probe-labelled cysteine peptide fold change (10 µM): 0.094 | probe-labelled cysteine peptide fold change (50 µM): 0.176

CDCA2_Q69YH5_315_SPATPACR (UniProt Q69YH5)
probe-labelled cysteine peptide fold change (10 µM): -0.123 | probe-labelled cysteine peptide fold change (50 µM): -0.761

CD180_Q99467_419_ECPQLELLDLAFTR (UniProt Q99467)
probe-labelled cysteine peptide fold change (10 µM): -0.115 | probe-labelled cysteine peptide fold change (50 µM): -0.108
